Laboratory results reported in PubChem BioAssay AID248 (DTP/NCI, 2004).
The list is a part of this screen's results and no random one: it gathers tests that were run many times, whatever their T/C, doses with no T/C, and many T/C values between a quarter and a half above the control. Other doses and runs of a compound stand elsewhere. T/C gives the treated animals as a percentage of the vehicle group. Some doses have a count of surviving animals in place of a T/C: the source files T/C as zero there, which appears to mark a toxic dose or a test without result, not a measured value. Some doses without a T/C left all or most animals alive at the check, yet need not have been tolerated: the source hardly ever lists a survival T/C far under the control, and the zero likely stands for such cases as well. Counts of survivors are from the toxicity check (mostly the fifth day) where no day follows; animals may have died later. Schedules are NCI's codes, read here as Q, the interval in days (D) or hours (H), X, the number of doses.

Test system: L1210 leukemia ip in BDF1 mice, survival T/C
Assay: NCI In Vivo Anticancer Drug Screen. Data for tumor model L1210 Leukemia (intraperitoneal) in B6D2F1 (BDF1) mice
Settings: T/C endpoint: mean survival time, higher T/C = longer survival

With `c1ccc([P+](C[P+](c2ccccc2)(c2ccccc2)c2ccccc2)(c2ccccc2)c2ccccc2)cc1` the survivor count (dose: 6.25 mg/kg/injection, schedule: Q01DX009 (ip), vehicle: Klucel (hydroxypropylcellulose) (HPC)) was 5 of 6.

With `CN(C)C(=S)NN` the survivor count (dose: 6.25 mg/kg/injection, schedule: Q01DX009 (ip), vehicle: saline with Tween-80) was 1 of 6, the survivor count (dose: 12.5 mg/kg/injection, schedule: Q04DX003 (ip), vehicle: saline with Tween-80) was 3 of 6 and the survivor count (dose: 25.0 mg/kg/injection, schedule: Q04DX003 (ip), vehicle: saline with Tween-80) was 0 of 6. For the same molecule, the survivor count (dose: 50.0 mg/kg/injection, schedule: Q04DX003 (ip), vehicle: saline with Tween-80) was 0 of 6.

`CCCCSP(=O)(SCCCC)N1CCCCC1` was tested, and the survivor count (dose: 100.0 mg/kg/injection, schedule: Q04DX002 (ip), vehicle: saline with Tween-80) was 2 of 3, the survivor count (dose: 200.0 mg/kg/injection, schedule: Q04DX002 (ip), vehicle: saline with Tween-80) was 2 of 3 and the survivor count (dose: 400.0 mg/kg/injection, schedule: Q04DX002 (ip), vehicle: saline with Tween-80) was 0 of 3.
